Numbering of substitutions follows the chain as printed. Some of the results follow. For some assays here: At the low end of the ranking, values are background and their order means little.
Experiments:
Settings in all cases: yeast three-hybrid, YBZ-1, SC-Leu-His + 0.5 mM 3-AT, 4 days
[1] = molecular target: T1, PUM1 PUF domain R5-RGW C1007R + R1008G + Q1011W (UniProt Q14671)
T1 sequence: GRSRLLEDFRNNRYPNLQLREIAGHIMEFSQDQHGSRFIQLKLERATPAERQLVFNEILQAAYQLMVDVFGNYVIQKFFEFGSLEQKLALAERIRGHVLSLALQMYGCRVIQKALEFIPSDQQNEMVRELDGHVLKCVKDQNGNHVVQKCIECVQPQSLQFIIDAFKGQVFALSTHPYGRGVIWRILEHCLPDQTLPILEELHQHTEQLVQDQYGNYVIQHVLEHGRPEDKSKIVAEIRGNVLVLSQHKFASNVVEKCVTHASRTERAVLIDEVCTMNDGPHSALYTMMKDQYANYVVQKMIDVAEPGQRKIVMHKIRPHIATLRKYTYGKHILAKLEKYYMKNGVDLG

[2] = molecular target: T2, PUM1 PUF domain R5-RHF C1007R + R1008H + Q1011F (Homo sapiens) (UniProt Q14671)
T2 sequence: T1 sequence with G181H, W184F

[3] = molecular target: T3, PUM1 PUF domain R5-RKC C1007R + R1008K + Q1011C (Homo sapiens) (UniProt Q14671)
T3 sequence: T1 sequence with G181K, W184C

[4] = molecular target: T4, PUM1 PUF domain R5-RKD C1007R + R1008K + Q1011D (Homo sapiens) (UniProt Q14671)
T4 sequence: T1 sequence with G181K, W184D

[5] = molecular target: T5, PUM1 PUF domain R5-RKE C1007R + R1008K + Q1011E (Homo sapiens) (UniProt Q14671)
T5 sequence: T1 sequence with G181K, W184E

[6] = molecular target: T6, PUM1 PUF domain R5-RKI C1007R + R1008K + Q1011I (Homo sapiens) (UniProt Q14671)
T6 sequence: T1 sequence with G181K, W184I

[7] = molecular target: T7, PUM1 PUF domain R5-RKN C1007R + R1008K + Q1011N (Homo sapiens) (UniProt Q14671)
T7 sequence: T1 sequence with G181K, W184N

[8] = molecular target: T8, PUM1 PUF domain R5-RKP C1007R + R1008K + Q1011P (Homo sapiens) (UniProt Q14671)
T8 sequence: T1 sequence with G181K, W184P

[9] = molecular target: T9, PUM1 PUF domain R5-RKT C1007R + R1008K + Q1011T (Homo sapiens) (UniProt Q14671)
T9 sequence: T1 sequence with G181K, W184T

[10] = molecular target: T10, PUM1 PUF domain R5-RKV C1007R + R1008K + Q1011V (UniProt Q14671)
T10 sequence: T1 sequence with G181K, W184V

[11] = molecular target: T11, PUM1 PUF domain R5-RLD C1007R + R1008L + Q1011D (UniProt Q14671)
T11 sequence: T1 sequence with G181L, W184D

[12] = molecular target: T12, PUM1 PUF domain R5-RLM C1007R + R1008L + Q1011M (Homo sapiens) (UniProt Q14671)
T12 sequence: T1 sequence with G181L, W184M

[13] = molecular target: T13, PUM1 PUF domain R5-RLQ C1007R + R1008L (Homo sapiens) (UniProt Q14671)
T13 sequence: T1 sequence with G181L, W184Q

[14] = molecular target: T14, PUM1 PUF domain R5-RLT C1007R + R1008L + Q1011T (UniProt Q14671)
T14 sequence: T1 sequence with G181L, W184T

[15] = molecular target: T15, PUM1 PUF domain R5-RMC C1007R + R1008M + Q1011C (UniProt Q14671)
T15 sequence: T1 sequence with G181M, W184C

[16] = molecular target: T16, PUM1 PUF domain R5-RMD C1007R + R1008M + Q1011D (UniProt Q14671)
T16 sequence: T1 sequence with G181M, W184D

[17] = molecular target: T17, PUM1 PUF domain R5-RMG C1007R + R1008M + Q1011G (Homo sapiens) (UniProt Q14671)
T17 sequence: T1 sequence with G181M, W184G

[18] = molecular target: T18, PUM1 PUF domain R5-RMK C1007R + R1008M + Q1011K (Homo sapiens) (UniProt Q14671)
T18 sequence: T1 sequence with G181M, W184K

[19] = molecular target: T19, PUM1 PUF domain R5-RMM C1007R + R1008M + Q1011M (UniProt Q14671)
T19 sequence: T1 sequence with G181M, W184M

[20] = molecular target: T20, PUM1 PUF domain R5-RMR C1007R + R1008M + Q1011R (Homo sapiens) (UniProt Q14671)
T20 sequence: T1 sequence with G181M, W184R

GGCUAGAACUAGUGGAUCCCCCGGCGCCCGGCGGCUCGAGCCCGGGUAAGUGUAAAUAGUCUGCAUGCCGCCGGGCGCCAUGCCUGCAGGUCGACUCUAGAAAACAUG
binding signal (log2 enrichment (interaction score)) [1]: -6.82 | binding signal (log2 enrichment (interaction score)) [2]: -0.81 | binding signal (log2 enrichment (interaction score)) [3]: -0 | binding signal (log2 enrichment (interaction score)) [4]: -1.43 | binding signal (log2 enrichment (interaction score)) [5]: -2.22 | binding signal (log2 enrichment (interaction score)) [6]: -0.07 | binding signal (log2 enrichment (interaction score)) [7]: 0.58 | binding signal (log2 enrichment (interaction score)) [8]: -0.52 | binding signal (log2 enrichment (interaction score)) [9]: -1.12 | binding signal (log2 enrichment (interaction score)) [10]: -2.29 | binding signal (log2 enrichment (interaction score)) [11]: -5.83 | binding signal (log2 enrichment (interaction score)) [12]: -0.64 | binding signal (log2 enrichment (interaction score)) [13]: -1.54 | binding signal (log2 enrichment (interaction score)) [14]: < -9.47 | binding signal (log2 enrichment (interaction score)) [15]: < -5.55 | binding signal (log2 enrichment (interaction score)) [16]: -4.53 | binding signal (log2 enrichment (interaction score)) [17]: -1.91 | binding signal (log2 enrichment (interaction score)) [18]: -0.47 | binding signal (log2 enrichment (interaction score)) [19]: -2.9 | binding signal (log2 enrichment (interaction score)) [20]: -0.32
